Data: publication PMC7446885
Results are given in words; binding and its absence hold for the method and conditions named. For some assays here: A result given as binding can be weak or reduced; the word gives no strength. Where a sequence is shown, tags or fusion partners need not be part of it. For some assays here: Binding seen in cells or lysates may run through a third protein.

Experiments:
[1] = target: RxL21ΔRxLR (Δ1–51), yeast two-hybrid fusion (Hyaloperonospora arabidopsidis); experiment: two-hybrid; Gal4 AD-X (yeast Y8800) and DB-X (Y8930) fusions mated; growth on SC media lacking Leu, Trp and His (3AT for stringency) or also Ade; tested in both directions
[2] = target: RxL21ΔEAR2 (Δ360–409), yeast two-hybrid fusion (Hyaloperonospora arabidopsidis); experiment: as above
[3] = target: RxL21ΔEAR1 (Δ402–409), yeast two-hybrid fusion (Hyaloperonospora arabidopsidis); experiment: as above
[4] = target: RxL21 with Leu389 mutated to Phe, yeast two-hybrid fusion (Hyaloperonospora arabidopsidis); experiment: as above
[5] = target: Myc-tagged RxL21ΔEAR (Hyaloperonospora arabidopsidis); experiment: co-IP; transient co-expression in N. benthamiana leaves, RxL21 induced with 30 uM estradiol; sonicated nuclear lysate (10 mM Tris pH 7.5, 150 mM NaCl, 0.5% Igepal, 4 C); anti-c-myc magnetic microbeads, blot with anti-HA

B1: TOPLESS (TPL) of Arabidopsis, yeast two-hybrid fusion (protein, UniProt Q94AI7 1-1131)
chain: MSSLSRELVFLILQFLDEEKFKETVHKLEQESGFFFNMKYFEDEVHNGNWDEVEKYLSGFTKVDDNRYSMKIFFEIRKQKYLEALDKHDRPKAVDILVKDLKVFSTFNEELFKEITQLLTLENFRENEQLSKYGDTKSARAIMLVELKKLIEANPLFRDKLQFPTLRNSRLRTLINQSLNWQHQLCKNPRPNPDIKTLFVDHSCGPPNGARAPSPVNNPLLGGIPKAGGFPPLGAHGPFQPTASPVPTPLAGWMSSPSSVPHPAVSAGAIALGGPSIPAALKHPRTPPTNASLDYPSADSEHVSKRTRPMGISDEVNLGVNMLPMSFSGQAHGHSPAFKAPDDLPKTVARTLSQGSSPMSMDFHPIKQTLLLVGTNVGDIGLWEVGSRERLVQKTFKVWDLSKCSMPLQAALVKEPVVSVNRVIWSPDGSLFGVAYSRHIVQLYSYHGGEDMRQHLEIDAHVGGVNDISFSTPNKQLCVITCGDDKTIKVWDAATGVKRHTFEGHEAPVYSVCPHYKENIQFIFSTALDGKIKAWLYDNMGSRVDYDAPGRWCTTMAYSADGTRLFSCGTSKDGESFIVEWNESEGAVKRTYQGFHKRSLGVVQFDTTKNRYLAAGDDFSIKFWDMDAVQLLTAIDGDGGLQASPRIRFNKEGSLLAVSGNENVIKIMANSDGLRLLHTFENISSESSKPAINSIAAAAAAAATSAGHADRSANVVSIQGMNGDSRNMVDVKPVITEESNDKSKIWKLTEVSEPSQCRSLRLPENLRVAKISRLIFTNSGNAILALASNAIHLLWKWQRNERNATGKATASLPPQQWQPASGILMTNDVAETNPEEAVPCFALSKNDSYVMSASGGKISLFNMMTFKTMATFMPPPPAATFLAFHPQDNNIIAIGMDDSTIQIYNVRVDEVKSKLKGHSKRITGLAFSNVLNVLVSSGADAQLCVWNTDGWEKQRSKVLPLPQGRPNSAPSDTRVQFHQDQAHFLVVHETQLAIYETTKLECMKQWAVRESLAPITHATFSCDSQLVYASFMDATVCVFSSANLRLRCRVNPSAYLPASLSNSNVHPLVIAAHPQEPNMFAVGLSDGGVHIFEPLESEGKWGVAPPAENGSASGAPTAPSVGASASDQPQR
Which results are given for B1?
binding [1]: binds; binding [2]: no binding; binding [3]: no binding; binding [4]: no binding

B2: TPL-HA (protein, UniProt Q94AI7 1-1131)
chain: B1 chain
With B2 as the binder, how does the binding [5] read?
The binding was “no binding”.
